Reference: the supplement of paper PMC12823440, “Inhibitors supercharge kinase turnover through native proteolytic circuits” (Nature, 2025)
Where a name gives a salt, the structure may show the parent alone. The list shows a part of the results. Hit calls seldom repeat between salt and free forms of one compound.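 Kinases, fused to nanoluciferase, were expressed in K562 cells; luminescence was measured every 4 h from 2 to 18 h as percent of control (DMSO = 100%, positive control = 0%). A time point is decreased if signal falls significantly (2 sigma). Hits were called by the authors by a rule that is not shown; the count of time points alone does not decide it.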

Chains of the proteins cited; added tags and fusions are not shown. Lines headed by an entry give the natural chain unless they say otherwise; changes in a name come on top.
UniProt Q9UQM7, whole entry: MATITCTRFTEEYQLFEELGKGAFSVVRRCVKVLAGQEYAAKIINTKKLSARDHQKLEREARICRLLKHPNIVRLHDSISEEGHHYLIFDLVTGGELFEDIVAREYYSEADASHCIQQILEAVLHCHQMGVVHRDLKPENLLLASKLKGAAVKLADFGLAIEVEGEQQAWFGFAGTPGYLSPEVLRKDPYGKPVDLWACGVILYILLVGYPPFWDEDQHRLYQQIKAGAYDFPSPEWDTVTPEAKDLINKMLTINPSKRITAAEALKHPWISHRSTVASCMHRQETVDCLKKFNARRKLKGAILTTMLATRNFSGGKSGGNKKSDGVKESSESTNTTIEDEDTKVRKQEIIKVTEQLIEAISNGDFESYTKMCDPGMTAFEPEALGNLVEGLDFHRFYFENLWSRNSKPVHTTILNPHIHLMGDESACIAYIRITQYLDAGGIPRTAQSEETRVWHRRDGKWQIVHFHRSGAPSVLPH
UniProt Q13555: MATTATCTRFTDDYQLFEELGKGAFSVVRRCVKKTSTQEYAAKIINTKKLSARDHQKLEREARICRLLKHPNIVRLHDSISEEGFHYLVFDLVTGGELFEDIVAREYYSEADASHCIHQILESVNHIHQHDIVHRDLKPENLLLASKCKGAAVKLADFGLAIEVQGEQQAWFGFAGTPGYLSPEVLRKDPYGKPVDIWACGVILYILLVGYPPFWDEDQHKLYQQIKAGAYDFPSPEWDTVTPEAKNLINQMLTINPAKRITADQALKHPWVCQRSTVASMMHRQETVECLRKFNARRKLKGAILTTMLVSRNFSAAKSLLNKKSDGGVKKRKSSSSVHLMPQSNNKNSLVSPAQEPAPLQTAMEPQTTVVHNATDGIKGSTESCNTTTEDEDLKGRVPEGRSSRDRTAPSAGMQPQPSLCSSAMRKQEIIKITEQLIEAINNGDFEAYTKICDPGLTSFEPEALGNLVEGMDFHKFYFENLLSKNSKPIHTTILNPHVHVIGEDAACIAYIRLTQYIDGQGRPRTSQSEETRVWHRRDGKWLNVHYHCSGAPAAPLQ

Molecular target: CAMK2A (UniProt Q9UQM7)
Assay: number of time points (of 5) at which kinase-Nluc abundance scored as decreased, DMSO-normalised (count); higher = more persistent destabilization
Settings: K562; 2-18 h

SMILES | number of time points
CCN1CCN(c2ccc(Nc3cc(N(C)C(=O)Nc4c(Cl)c(OC)cc(OC)c4Cl)ncn3)cc2)CC1 [Infigratinib] (10 µM) | 0
COc1c(CC=C(C)C)c(O)cc2oc(=O)c(-c3ccc(O)cc3O)cc12 [Glycycoumarin] (10 µM) | 0
Cc1cc(C(=O)Nc2cccc(C(=O)Nc3cccc(C(F)(F)F)c3)c2)on1 (10 µM) | 0
Cn1c(=O)c(Oc2ccc(F)cc2F)cc2cnc(NC3CCOCC3)nc21 [R1487 (Hydrochloride)] (10 µM) | 0

Molecular target: CAMK2G (UniProt Q13555)
Assay: as above
Settings: K562; 2-18 h

SMILES | number of time points
N#Cc1ccc2[nH]c(O)c(-c3ccc(CN4CCOCC4)cn3)c2c1 (10 µM) | 0
CCN(CC)CCCCNc1ncc2cc(-c3cc(OC)cc(OC)c3)c(NC(=O)NC(C)(C)C)nc2n1 (10 µM) | 0
Oc1ccc(-c2nc(-c3ccc(F)cc3)c(-c3ccncc3)[nH]2)cc1 (2.5 µM) | 0
O=C1NCCc2[nH]c(-c3ccnc(-c4cnc5ccccc5c4)c3)cc21 (10 µM) | 0
Cc1cc(N2CCOCC2)cc2[nH]c(-c3c(NC[C@@H](O)c4cccc(Cl)c4)cc[nH]c3=O)nc12 (10 µM) | 0
COc1cc(OC)cc(-c2cc3cnc(N)nc3nc2NC(=O)NC(C)(C)C)c1 (10 µM) | 0
Cc1ccc(NC(=O)Nc2nnc(Sc3ncnc4cc(OCCCN5CCOCC5)ccc34)s2)cc1 (10 µM) | 0
N#C/C(=C\c1ccc(O)c(O)c1)C(=O)NCCCc1ccccc1 (10 µM) | 0
Cc1cccc([C@@H](CO)NC(=O)[C@@H](C)N2Cc3ccc(-c4nc(NC5CCOCC5)ncc4Cl)cc3C2=O)c1 [ERK1/2 inhibitor 1] (10 µM) | 0
CCOc1ccn(-c2ccc(F)cc2)c(=O)c1C(=O)Nc1ccc(Oc2ccnc(N)c2Cl)c(F)c1 (10 µM) | 0
O=c1cc(N2CCOCC2)oc2c(-c3ccccc3)cccc12 (10 µM) | 0
O=c1oc2c(O)c(O)cc3c(=O)oc4c(O)c(O)cc1c4c23 [Ellagic acid] (10 µM) | 0
C=CC(=O)Nc1ccc2ncnc(Nc3cccc(Br)c3)c2c1 (10 µM) | 0
Cc1c(Cn2c(C)nc3c(C(=O)O)cc(N4CCOCC4)cc32)cccc1C(F)(F)F (10 µM) | 0
Cc1c[nH]c2nccc(Oc3c(F)cc(Nc4cc(Cl)nc(N)n4)cc3F)c12 (10 µM) | 1
CC(C)CC(=O)Nc1n[nH]c2c1CN(C(=O)C1CCN(C)CC1)C2(C)C (2.5 µM) | 0

Rewritten as tab-separated lines: entries from further up
SMILES	number of time points
Cc1cccc([C@@H](CO)NC(=O)[C@@H](C)N2Cc3ccc(-c4nc(NC5CCOCC5)ncc4Cl)cc3C2=O)c1 [ERK1/2 inhibitor 1] (10 µM)	0
CCOc1ccn(-c2ccc(F)cc2)c(=O)c1C(=O)Nc1ccc(Oc2ccnc(N)c2Cl)c(F)c1 (10 µM)	0
O=c1cc(N2CCOCC2)oc2c(-c3ccccc3)cccc12 (10 µM)	0
O=c1oc2c(O)c(O)cc3c(=O)oc4c(O)c(O)cc1c4c23 [Ellagic acid] (10 µM)	0
C=CC(=O)Nc1ccc2ncnc(Nc3cccc(Br)c3)c2c1 (10 µM)	0
Cc1c(Cn2c(C)nc3c(C(=O)O)cc(N4CCOCC4)cc32)cccc1C(F)(F)F (10 µM)	0
Cc1c[nH]c2nccc(Oc3c(F)cc(Nc4cc(Cl)nc(N)n4)cc3F)c12 (10 µM)	1

The listing continues:

SMILES | number of time points
CCN(CCO)CCCOc1ccc2c(Nc3cc(CC(=O)Nc4cccc(F)c4)[nH]n3)ncnc2c1 [Barasertib-HQPA] (10 µM) | 0
N#C/C(=C\c1ccc(O)c(O)c1)C(=O)NCc1ccccc1 (10 µM) | 0
COc1nccc(-c2c(-c3ccc(F)cc3)ncn2C2CCC(O)CC2)n1 (stereo not given) (10 µM) | 0
O=c1c(-c2ccc(O)cc2)coc2cc(O)cc(O)c12 [Genistein] (10 µM) | 0
CCOc1cc2ncc(C#N)c(Nc3ccc(OCc4ccccn4)c(Cl)c3)c2cc1NC(=O)/C=C/CN(C)C [Neratinib] (10 µM) | 0
CN1CCC(Nc2ncc3ncnc(Nc4ccc(F)c(Cl)c4)c3n2)CC1 [Falnidamol] (10 µM) | 0
O=c1c(O)c(-c2ccc(O)c(O)c2)oc2cc(O)cc(O)c12 [Quercetin (dihydrate)] (10 µM) | 0
COc1ccc(C=C(C#N)c2cccnc2)cc1OC (10 µM) | 0
Nc1ncnc2c1c(-c1ccc(Oc3ccccc3)cc1)cn2C1CCCC1 (2.5 µM) | 0
COc1cc2nc(C)nc(N[C@H](C)c3cc(N)cc(C(F)(F)F)c3)c2cc1O[C@H]1CCOC1 (10 µM) | 0
N#CC(=Cc1ccc(O)c(O)c1)C(=O)NCc1ccccc1 (mixture of isomers) (10 µM) | 0
O=C1Cc2c([nH]c3ccc(Br)cc23)-c2ncccc2N1 [1-Azakenpaullone] (10 µM) | 0
COc1cc2c(Nc3ccc(Br)cc3F)ncnc2cc1OCCn1ccnn1 (10 µM) | 0
CNc1nc(-c2ccc3c(N)n[nH]c3c2)cc(N2C[C@@H](C(=O)NC3CCCCC3)CC[C@H]2C)n1 (10 µM) | 0
Cc1cc(F)c(C(=O)Nc2cccc(-c3nncn3C(C)C)n2)cc1-n1cnc(C2CC2)c1 [Selonsertib] (10 µM) | 0
